Each number is a percent effect as filed. The record does not define 0% and 100%; most values in the screen are far below 50% and negative numbers occur (in some assays of this library far below -100). This is an unselected part of the compounds tested. Two or more numbers in one place are separate tests of the same structure; such repeats can differ widely.

Mtb cholesterol medium: 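Whole-cell growth test on Mycobacterium tuberculosis, read after 4 days in a medium based on cholesterol and the lipid DPPC; the read-out is not stated. Tested at 50 µM. Direction is inferred from retests: higher values go with more growth inhibition. Of about 69,000 compounds tested this way, about 370 (0.54%) reached 50% or more in at least one test.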
Mtb glucose medium: 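Growth of Mycobacterium tuberculosis over 3 days (7H9 medium with glucose and tyloxapol); the read-out is not stated. Concentration: 50 µM. Higher reads as more growth inhibition (inferred: compounds with an IC50 in retests scored well above the rest). Of about 69,000 compounds tested this way, about 760 (1.1%) reached 50% or more in at least one test.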

Compound	Mtb cholesterol medium	Mtb glucose medium
CC(C)c1cc(C(=O)N2CCc3ccccc3C2C(=O)O)nn1C (configuration not stated)	-14.46%	-50.23%
CCOc1ccc(CSC(C)c2nc(C)no2)nc1 (configuration not stated)	-10.69%	-3.038%
O=C(O)C(F)(F)F.O=C1CC(c2ccncc2)C2(CCN(C(=O)NC3CC3)CC2)N1 (configuration not stated)	19.94%	-9.203% & -11.18%
CC(C)(C)CC(=O)NCC(=O)NS(=O)(=O)c1cccnc1	8.019%	16.23% & 2.354%
COc1ccc(Cl)cc1CN(C)CC(=O)/N=c1\cc[nH]n1C(C)C1CC1 (configuration not stated)	-3.52%	-15.46%
N#Cc1cccc(Cl)c1NC1CCN(CC(N)=O)CC1	-0.09382%	-10.22%
Cc1cc(N)n(-c2ccc3nnc(C)n3n2)n1	4.66%	-24.07%
Cc1cc(C(=O)N2CCN(C)CC2)nn1CC(=O)NCc1cccs1.Cl	-0.3766%	-0.2402% & -4.923%
Cc1cnc(N2CCN(C(C)C(N)=O)CC2)nc1 (configuration not stated)	6.555%	10.6%
[H][C@@]12CCN(C(=O)CC(C)(C)C)[C@]1([H])C(=O)N(Cc1ccccc1)C(=O)N2	11.93%	2.383% & -5.792%
Cl.O=S(=O)(c1ccc(Cl)cc1)N1CCc2nc(C3CCNCC3)ncc2C1	19.64%	53.63%
CNCC(=O)NC1CC(C)(C)Cc2nc(C(C)(C)C)ncc21 (configuration not stated)	-17.71%	-5.98%
Cc1nc(CC(=O)N2CCCC[C@H](N(C)C)C2)cs1	5.924%	7.437%
Cc1nn(C2CCS(=O)(=O)C2)c(O)c1CCc1ccccc1 (configuration not stated)	-16.89%	-20.91%
CS(=O)(=O)CCCN1CCSCC1c1ccc(Cl)cc1 (configuration not stated)	25.74%	4.14% & 15.08%
Cc1ccc(-c2c(-c3ccccc3)ncn2CCCN2CCOCC2)o1	0.8271%	-16.02%
CCCNC(=O)C(C)n1nc(-c2ccc(C)o2)cc(N)c1=O (configuration not stated)	6.204% & 10.28%	-4.742%
CCCNC(=O)c1cc(-c2cnc(N3CCCC3)nc2)cn1C	8.93% & 0.6593%	9.538%
CN(C)CC1(O)CCCN(C(=O)c2ccccc2-n2cncn2)C1 (configuration not stated)	-6.925%	7.129% & -27.27%
Cc1ccc(CNc2ccc(C(=O)N3CCNC(=O)C3)cn2)cc1	-20.18%	-4.967% & -18.39%
Cc1nnc(NCc2ccc(F)cc2)o1	-3.001%	-5.003% & -2.49%
CCc1ocnc1C(=O)N1CCN(c2nncc3ccccc23)CC1	7.694%	7.234% & 12.16%
CCN(CC1CN(Cc2nccn2CC)CCO1)c1cccnn1 (configuration not stated)	2.083% & 2.035%	18.96%
CC(C)C1SCC(=O)Nc2c1cnn2-c1ccc(F)cc1 (configuration not stated)	-4.185%	8.027%
N#Cc1ccc(CN2CCN(c3ccncc3Cl)CC2=O)cc1	1.611%	8.21%
O=C(c1cc(Cl)ccc1OC1CCN(C2CCCC2)CC1)N1CC(O)C1	-8.849%	-8.856%
COc1ccc(CNCC(C)Oc2ccccn2)cc1Cl.Cl (configuration not stated)	-5.13%	22.01%
FC(F)C(F)(F)COCc1ncnn1-c1ccc2c(c1)OCO2	1.812%	1.166%
NC(=O)C1CCN(C(=O)CCn2c(C(F)(F)F)cc3cccnc32)CC1	12.7%	14.12%
CCSc1ccc(C(=O)Nc2c(C)nn(C(C)C)c2C)cn1	-3.024%	-8.754%
O=C(c1ccno1)N1CCC2(CC1)C(=O)N(CC1CC1)c1ccccc12	-5.414%	9.484%
Cc1cc2ccccc2n1CC(=O)NCC(=O)N1CCOCC1	-1.357%	1.488% & -0.6373%
CCC(C)C(=O)Nc1ccc(CCN2CCOCC2)cc1 (configuration not stated)	12.73%	-9.139%
Cc1nn(C)c(N(C)C)c1CNCc1cccc(Br)c1	2.878%	-2.296% & -8.356%
CC(=O)N1CCC(Cc2nccnc2-c2c(C)n[nH]c2C)C1 (configuration not stated)	8.504%	2.528%
CCn1cnc2c(cnn2-c2cccc(C)c2C)c1=O	-11.61%	-0.004876%
CCOc1ncccc1CNS(=O)(=O)N1CCOCC1	-22.92%	-10.38%
CC(C1CC1)N(C(=O)NCCCn1nc2ccccn2c1=O)C1CC1 (configuration not stated)	-13.92%	5.51% & 0.1315%
Cc1n[nH]c(C2CN(C(=O)c3ccc(=O)n(C)c3)CCO2)n1 (configuration not stated)	-31.58%	-7.905%
CCn1nc(C)c(C(C)NC(=O)c2cccc(NCC(=O)O)c2)c1C (configuration not stated)	4.974%	-7.206%
c1ccc(NCc2cn3c(n2)CN(Cc2nccs2)CC3)nc1	0.8952%	-1.931% & 17.83%
CC(=O)N1N=C(c2cccs2)OC1C(=O)Nc1ccc(C(C)C)cc1 (configuration not stated)	2.462%	-12.06%
Cn1cccc1C(=O)N1CCC2(CC1)CN(c1ccccn1)CCO2.O=C(O)C(F)(F)F	-9.236%	8.982%
Cc1ncc2c(c1CNC(=O)C1(C)CC1)CCNC2	-11.03%	-2.639%
COc1cc(C(=O)N(C)C(C)Cc2cc(C)ccn2)ccn1 (configuration not stated)	-4.004%	-17.48% & -1.504%
Cc1ccsc1C(=O)N1Cc2ncn(C)c2C(COCC2CC2)C1.O=C(O)C(F)(F)F (configuration not stated)	-8.646% & -20.64%	-33.59% & -3.641%
O=S(=O)(Cc1ccccc1)NCc1ccco1	-11.91%	-18.99% & 13.45%
c1ccc(COc2ccccc2CNC2CCc3ncnn3C2)cc1 (configuration not stated)	-2.061%	8.232%
COCC(=O)N1CCC2(CCN(Cc3ccccn3)CC2)CC1	-7.576%	10.49%
CCc1ccc(CN(Cc2ccco2)C(C)C(C)C)nc1 (configuration not stated)	-4.989%	-0.6194%
Cc1cc(C(F)(F)F)nn1CC(C)C(=O)Nc1ccccn1 (configuration not stated)	18.92%	44.59%
O=C(CCOc1ccc(Br)cc1)N1CCN(c2cnccn2)CC1	0.8449%	5.51%
Cc1cccnc1NC(=O)c1ccc(-n2ncc(C#N)c2N)cc1	-10.16%	-28.44%
CC(C(=O)Nc1ncccn1)N1CCCN(c2nccs2)CC1 (configuration not stated)	-14.71%	-22.58%
CCCC(C(=O)NC1CCN(S(C)(=O)=O)CC1)n1cccc1 (configuration not stated)	0.6841%	19.84%
COCCN1CCCC(c2nc(C)n3c(C)c(C)sc23)C1 (configuration not stated)	-2.66%	7.276%
N#Cc1c(N)nc2c(c1-c1cnc(N3CCCC3)nc1)COCC2	-3.386%	-3.026%
Cc1nc(CN2CCOCC23CCN(c2ccc(C#N)cc2)CC3)cs1.O=C(O)C(F)(F)F	35.78%	12.62% & 6.475%
O=C(C1CCN(c2ncnc3cccc(F)c23)CC1)N1CCCC1	-23.44%	-20.4% & 8.736%

Once more, the final 7:

{"compound": "Cc1cccnc1NC(=O)c1ccc(-n2ncc(C#N)c2N)cc1", "Mtb cholesterol medium": -10.16, "Mtb glucose medium": -28.44}
{"compound": "CC(C(=O)Nc1ncccn1)N1CCCN(c2nccs2)CC1", "stereo": "configuration not stated", "Mtb cholesterol medium": -14.71, "Mtb glucose medium": -22.58}
{"compound": "CCCC(C(=O)NC1CCN(S(C)(=O)=O)CC1)n1cccc1", "stereo": "configuration not stated", "Mtb cholesterol medium": 0.6841, "Mtb glucose medium": 19.84}
{"compound": "COCCN1CCCC(c2nc(C)n3c(C)c(C)sc23)C1", "stereo": "configuration not stated", "Mtb cholesterol medium": -2.66, "Mtb glucose medium": 7.276}
{"compound": "N#Cc1c(N)nc2c(c1-c1cnc(N3CCCC3)nc1)COCC2", "Mtb cholesterol medium": -3.386, "Mtb glucose medium": -3.026}
{"compound": "Cc1nc(CN2CCOCC23CCN(c2ccc(C#N)cc2)CC3)cs1.O=C(O)C(F)(F)F", "Mtb cholesterol medium": 35.78, "Mtb glucose medium": "12.62 & 6.475"}
{"compound": "O=C(C1CCN(c2ncnc3cccc(F)c23)CC1)N1CCCC1", "Mtb cholesterol medium": -23.44, "Mtb glucose medium": "-20.4 & 8.736"}

The values are deposited in ChEMBL (CHEMBL3988442, “University of Dundee, Small-Polar-MMV Screening Library” (2021)).